Test results as given in patent US11638428B2, “Nematocidal heterocyclic amides” (CORTEVA AGRISCIENCE LLC, priority 2015, dated 2023).
Some entries share one result that the patent states for a list of compounds.

These compounds were tested on southern root-knot nematode (Meloidogyne incognita) (assay: Test A: control of southern root-knot nematode in sandy soil with cucumber seedlings (root gall formation)). Conditions: 500 ppm active ingredient applied to soil, J2 larvae and eggs, 7 days at 27° C.
Format: in vivo

Row | Structure (SMILES) | reduction in root galling, compared to solvent-treated controls (good levels of plant protection) [%]
1 | CC(NC(=O)c1sccc1C#N)C(C)(C)C (stereo not shown) [Compound 95] | ≥ 50
2 | Cc1occc1C(=O)NC1(C2CC2)CC1 [Compound 47] | ≥ 50
3 | CC(NC(=O)c1sccc1Br)C1CC1 (stereo not shown) [Compound 50] | ≥ 50
4 | Cc1ccsc1C(=O)NC(C1CC1)C1CC1 [Compound 52] | ≥ 50
5 | CC(NC(=O)c1sccc1C(F)(F)F)C1CC1 (stereo not shown) [Compound 65] | ≥ 50
6 | Cc1ncc(C(=O)NC(C)C2CC2)s1 (stereo not shown) [Compound 60] | ≥ 50
7 | Cc1ncsc1C(=O)NC(C)C1CC1 (stereo not shown) [Compound 70] | ≥ 50
8 | CCC(NC(=O)c1ccoc1Cl)C1CC1 (stereo not shown) [Compound 53] | ≥ 50
9 | CSc1ccsc1C(=O)NC(C)C1CC1 (stereo not shown) [Compound 58] | ≥ 50
10 | CC(NC(=O)c1ccoc1Cl)C1CCCC1 (stereo not shown) [Compound 20] | ≥ 50
11 | CC(NC(=O)c1ncsc1Br)C1CC1 (stereo not shown) [Compound 63] | ≥ 50
12 | CC(NC(=O)c1ncsc1C(F)(F)F)C1CC1 (stereo not shown) [Compound 72] | ≥ 50
13 | CCC(NC(=O)c1ccoc1C)C1CC1 (stereo not shown) [Compound 67] | ≥ 50
14 | CC(NC(=O)c1sccc1C(C)(C)C)C(C)(C)C (stereo not shown) [Compound 90] | ≥ 50
15 | CC(C)C(C)NC(=O)c1sccc1C(C)(C)C (stereo not shown) [Compound 89] | ≥ 50
16 | Cc1occc1C(=O)NC(C1CC1)C1CC1 [Compound 46] | ≥ 50
17 | CC(NC(=O)c1ncsc1Cl)C1CC1 (stereo not shown) [Compound 62] | ≥ 50
18 | Cc1ccsc1C(=O)NC(C)C(C)C (stereo not shown) [Compound 48] | ≥ 50
19 | CC(NC(=O)c1ncsc1I)C1CC1 (stereo not shown) [Compound 56] | ≥ 50
